According to paper doi:10.1101/144295:
These are yes or no findings as the source states them, for the method shown. Binding seen in cells or lysates may run through a third protein. Some results given as binding are weak or reduced against the parent protein; the word gives no strength.

Amino acid sequences for entries named in this document (tags omitted).
UniProt Q9NQV7: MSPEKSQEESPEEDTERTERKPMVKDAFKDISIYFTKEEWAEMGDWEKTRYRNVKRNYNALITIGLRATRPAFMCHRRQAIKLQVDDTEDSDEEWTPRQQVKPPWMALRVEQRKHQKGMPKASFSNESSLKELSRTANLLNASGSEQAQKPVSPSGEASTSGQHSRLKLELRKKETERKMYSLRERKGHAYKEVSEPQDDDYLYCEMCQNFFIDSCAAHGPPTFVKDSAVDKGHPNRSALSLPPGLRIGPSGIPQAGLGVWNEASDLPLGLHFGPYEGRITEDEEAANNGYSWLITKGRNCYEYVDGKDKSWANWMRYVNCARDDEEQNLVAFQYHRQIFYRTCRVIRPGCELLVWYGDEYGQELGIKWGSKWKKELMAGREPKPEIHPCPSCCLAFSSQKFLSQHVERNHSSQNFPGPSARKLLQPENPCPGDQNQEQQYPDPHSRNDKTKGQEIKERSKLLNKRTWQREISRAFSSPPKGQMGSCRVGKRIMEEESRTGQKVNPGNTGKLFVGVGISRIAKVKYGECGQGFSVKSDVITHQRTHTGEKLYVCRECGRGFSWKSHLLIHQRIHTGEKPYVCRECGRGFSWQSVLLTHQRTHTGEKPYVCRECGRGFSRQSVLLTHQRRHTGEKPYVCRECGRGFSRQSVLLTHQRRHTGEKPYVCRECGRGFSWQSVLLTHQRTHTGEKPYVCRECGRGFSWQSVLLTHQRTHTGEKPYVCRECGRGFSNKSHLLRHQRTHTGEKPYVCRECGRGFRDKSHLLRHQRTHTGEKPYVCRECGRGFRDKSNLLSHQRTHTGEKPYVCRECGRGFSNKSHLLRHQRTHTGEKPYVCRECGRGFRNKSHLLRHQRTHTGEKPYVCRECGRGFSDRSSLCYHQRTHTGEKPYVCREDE

Molecular target: full-length human PRDM9 (B allele), C-terminally tagged with HA or V5 (human) (UniProt Q9NQV7)
Assay: co-IP

## full-length human PRDM9 (B allele), C-terminally tagged with HA or V5 (from UniProt Q9NQV7 1-894)
  binding: binds
